Measurements: article PMC8980813
Results are given in words; binding and its absence hold for the method and conditions named. In cells and extracts the contact can be indirect. A result given as binding can be weak or reduced; the word gives no strength.

Protein sequences, listed by entry. Tags and fused reporters are not part of them. Lines headed by an entry give the natural chain unless they say otherwise; changes in a name come on top. Residues count along the entry.
UniProt Q9H825: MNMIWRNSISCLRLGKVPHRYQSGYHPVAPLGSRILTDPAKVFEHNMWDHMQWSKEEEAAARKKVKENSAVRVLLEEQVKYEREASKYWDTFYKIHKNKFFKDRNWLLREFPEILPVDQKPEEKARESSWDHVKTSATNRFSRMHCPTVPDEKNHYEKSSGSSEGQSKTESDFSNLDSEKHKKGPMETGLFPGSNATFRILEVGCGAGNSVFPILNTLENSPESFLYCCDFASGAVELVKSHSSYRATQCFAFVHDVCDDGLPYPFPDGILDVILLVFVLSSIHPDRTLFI
UniProt Q9NP81, residues 35-518: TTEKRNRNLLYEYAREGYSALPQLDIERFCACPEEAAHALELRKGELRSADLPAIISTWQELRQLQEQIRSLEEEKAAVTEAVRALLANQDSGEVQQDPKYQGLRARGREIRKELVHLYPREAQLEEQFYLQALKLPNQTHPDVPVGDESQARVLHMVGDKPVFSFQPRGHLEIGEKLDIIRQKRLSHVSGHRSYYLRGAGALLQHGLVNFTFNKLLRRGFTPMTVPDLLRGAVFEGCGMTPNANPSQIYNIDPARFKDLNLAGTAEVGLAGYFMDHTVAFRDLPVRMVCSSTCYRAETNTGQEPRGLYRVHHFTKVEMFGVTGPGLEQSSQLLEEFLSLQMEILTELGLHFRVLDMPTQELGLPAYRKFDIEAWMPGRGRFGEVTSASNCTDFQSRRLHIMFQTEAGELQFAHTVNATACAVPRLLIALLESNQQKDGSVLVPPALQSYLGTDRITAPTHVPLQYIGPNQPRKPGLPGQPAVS

Biological target: METTL8 fused to the Twin-Strep tag at the C-terminus (human) (UniProt Q9H825)
Assay: pull-down

With “FLAG-tagged SARS2 (mitochondrial seryl-tRNA synthetase) (from UniProt Q9NP81 35-518) (enzyme)” the binding was “binds”.

With “endogenous mitochondrial seryl-tRNA synthetase (SARS2) (from UniProt Q9NP81 35-518) (enzyme)” the binding was “binds”.
